Test: general procedure: Boc solid-phase peptide synthesis; Boc Thr(OBzl) Pam resin; methoxybenzhydrylamine resin; HBTU
Conditions: conjugation step

**Q.** With Glucagon Cys^24 Mal-PEG-20K as the substance, how does the difficulty met read?
**A.** The product ratio had not significantly improved
